These are yes or no findings as the source states them, for the method shown. In cells and extracts the contact can be indirect. Some binding calls cover weakened binding; strength is not graded here. Where a sequence is shown, tags or fusion partners need not be part of it.
B1: TWIST2 fused to GFP (protein, UniProt Q8WVJ9 1-160)
chain: MEEGSSSPVSPVDSLGTSEEELERQPKRFGRKRRYSKKSSEDGSPTPGKRGKKGSPSAQSFEELQSQRILANVRERQRTQSLNEAFAALRKIIPTLPSDKLSKIQTLKLAARYIDFLYQVLQSDEMDNKMTSCSYVAHERLSYAFSVWRMEGAWSMSASH
B2: SLUG (SNAIL2) fused to GFP (protein, UniProt O43623 1-268)
chain: MPRSFLVKKHFNASKKPNYSELDTHTVIISPYLYESYSMPVIPQPEILSSGAYSPITVWTTAAPFHAQLPNGLSPLSGYSSSLGRVSPPPPSDTSSKDHSGSESPISDEEERLQSKLSDPHAIEAEKFQCNLCNKTYSTFSGLAKHKQLHCDAQSRKSFSCKYCDKEYVSLGALKMHIRTHTLPCVCKICGKAFSRPWLLQGHIRTHTGEKPFSCPHCNRAFADRSNLRAHLQTHSDVKKYQCKNCSKTFSRMSLLHKHEESGCCVAH
B3: TWIST2 HLH region alone (aa64 to aa124) (domain or fragment, UniProt Q8WVJ9 64-124)
chain: LQSQRILANVRERQRTQSLNEAFAALRKIIPTLPSDKLSKIQTLKLAARYIDFLYQVLQSD

Protein sequences, listed by entry. Tags and fused reporters are not part of them. Lines headed by an entry give the natural chain unless they say otherwise; changes in a name come on top. Chains listed by the source or under a name are the forms on record and can include a tag or linker.
Promyelocytic Leukemia Protein isoform IV fused to mRED (P29590, form named): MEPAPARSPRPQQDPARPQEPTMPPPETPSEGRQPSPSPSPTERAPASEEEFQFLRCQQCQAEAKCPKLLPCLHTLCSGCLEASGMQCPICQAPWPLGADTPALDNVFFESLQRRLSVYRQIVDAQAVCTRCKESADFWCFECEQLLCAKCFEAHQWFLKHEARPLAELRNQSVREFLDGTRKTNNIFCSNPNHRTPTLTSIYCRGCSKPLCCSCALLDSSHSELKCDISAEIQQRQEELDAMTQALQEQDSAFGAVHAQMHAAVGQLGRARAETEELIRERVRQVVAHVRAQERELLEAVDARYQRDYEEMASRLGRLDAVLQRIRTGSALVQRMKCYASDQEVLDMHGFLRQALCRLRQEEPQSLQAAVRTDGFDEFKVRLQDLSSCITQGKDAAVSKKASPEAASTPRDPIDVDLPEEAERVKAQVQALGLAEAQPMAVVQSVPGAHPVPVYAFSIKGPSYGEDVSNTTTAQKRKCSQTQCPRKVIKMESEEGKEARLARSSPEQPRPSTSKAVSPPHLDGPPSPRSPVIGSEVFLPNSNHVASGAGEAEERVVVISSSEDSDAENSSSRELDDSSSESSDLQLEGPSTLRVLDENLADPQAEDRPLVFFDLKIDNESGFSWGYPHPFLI
UniProt Q15672: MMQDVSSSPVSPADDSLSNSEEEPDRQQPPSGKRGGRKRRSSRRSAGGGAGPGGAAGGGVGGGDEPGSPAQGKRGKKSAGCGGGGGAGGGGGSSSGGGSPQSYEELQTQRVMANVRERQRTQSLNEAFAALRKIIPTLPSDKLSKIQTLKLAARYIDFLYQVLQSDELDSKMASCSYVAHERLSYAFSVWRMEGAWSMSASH
UniProt O95863: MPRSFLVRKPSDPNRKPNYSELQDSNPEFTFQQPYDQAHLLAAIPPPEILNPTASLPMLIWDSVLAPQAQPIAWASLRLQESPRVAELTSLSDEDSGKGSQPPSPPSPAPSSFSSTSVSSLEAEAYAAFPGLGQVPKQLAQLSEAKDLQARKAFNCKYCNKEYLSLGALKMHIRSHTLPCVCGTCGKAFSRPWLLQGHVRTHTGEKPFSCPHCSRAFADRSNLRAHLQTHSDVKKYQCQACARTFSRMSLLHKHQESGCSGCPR

Target: Promyelocytic Leukemia Protein isoform IV fused to mRED (UniProt P29590)
Assay: co-IP

binding, binds:
TWIST1 fused to GFP (from UniProt Q15672 1-202)
SNAIL1 fused to GFP (from UniProt O95863 1-264)
B1
B2
B3

Source: publication doi:10.1101/2022.08.28.505601
